Results reported in paper doi:10.1101/740472.
No constants are given. Whether binding was seen depends on the method and setting. Binding seen in cells or lysates may run through a third protein. A yes stands for co-enrichment or nearness to the bait. Other partners may have been found. Sequences can lack the tags named with a protein.

Molecular target: T1, HA-tagged human ISLR (hISLR-HA) (human) (UniProt O14498)
T1 sequence: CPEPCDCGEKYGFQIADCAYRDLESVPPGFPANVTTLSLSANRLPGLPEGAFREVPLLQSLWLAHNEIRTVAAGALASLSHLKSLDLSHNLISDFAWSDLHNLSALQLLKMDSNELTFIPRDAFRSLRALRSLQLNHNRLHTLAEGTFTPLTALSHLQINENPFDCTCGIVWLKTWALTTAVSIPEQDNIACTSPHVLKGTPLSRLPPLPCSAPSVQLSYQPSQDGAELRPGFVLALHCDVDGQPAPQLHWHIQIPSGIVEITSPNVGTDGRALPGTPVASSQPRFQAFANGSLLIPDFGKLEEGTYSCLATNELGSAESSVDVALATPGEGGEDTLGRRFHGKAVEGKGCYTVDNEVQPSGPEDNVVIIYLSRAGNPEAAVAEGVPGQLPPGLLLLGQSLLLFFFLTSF
Assay: affinity purification with mass spectrometry

## ATP1B3 (from UniProt P54709 1-279)
  binding: binds
